The supplement of paper PMC12823440, “Inhibitors supercharge kinase turnover through native proteolytic circuits” (Nature, 2025)
Structures can show the parent of a compound that is named as a salt. This is one part of the list. Hit calls seldom repeat between salt and free forms of one compound.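 In K562 cells expressing nanoluciferase-fused kinases, luminescence was recorded at 4 h intervals between 2 and 18 h, normalized as percent of control with DMSO at 100% and a positive control at 0%. A significant (2 sigma) signal drop marks a time point as decreased. The authors' rule for a hit is not shown and takes in more than the number of time points.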

Amino acid sequences for entries named in this document (tags omitted). A change or cut given only in a name is not applied to a line headed by its entry.
UniProt P50613: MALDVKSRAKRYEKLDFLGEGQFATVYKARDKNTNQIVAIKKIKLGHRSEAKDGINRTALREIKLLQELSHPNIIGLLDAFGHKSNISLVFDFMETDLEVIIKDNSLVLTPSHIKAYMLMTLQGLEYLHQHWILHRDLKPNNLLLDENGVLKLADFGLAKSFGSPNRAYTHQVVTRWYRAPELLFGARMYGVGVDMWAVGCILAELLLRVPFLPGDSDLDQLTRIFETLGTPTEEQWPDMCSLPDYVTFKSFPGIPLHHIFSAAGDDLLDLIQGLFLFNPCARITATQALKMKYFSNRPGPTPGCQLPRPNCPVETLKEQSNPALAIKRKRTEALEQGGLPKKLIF
UniProt P50750, whole entry: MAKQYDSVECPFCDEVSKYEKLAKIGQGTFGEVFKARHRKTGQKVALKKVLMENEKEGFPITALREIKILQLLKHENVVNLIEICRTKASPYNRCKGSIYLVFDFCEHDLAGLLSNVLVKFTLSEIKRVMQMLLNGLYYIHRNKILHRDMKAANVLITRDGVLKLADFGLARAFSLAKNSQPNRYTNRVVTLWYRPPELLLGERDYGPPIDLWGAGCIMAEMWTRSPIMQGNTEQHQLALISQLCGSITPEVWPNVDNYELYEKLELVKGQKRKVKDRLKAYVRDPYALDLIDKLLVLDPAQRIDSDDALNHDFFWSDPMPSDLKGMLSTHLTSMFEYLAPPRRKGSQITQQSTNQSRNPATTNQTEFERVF
UniProt O96017, whole entry: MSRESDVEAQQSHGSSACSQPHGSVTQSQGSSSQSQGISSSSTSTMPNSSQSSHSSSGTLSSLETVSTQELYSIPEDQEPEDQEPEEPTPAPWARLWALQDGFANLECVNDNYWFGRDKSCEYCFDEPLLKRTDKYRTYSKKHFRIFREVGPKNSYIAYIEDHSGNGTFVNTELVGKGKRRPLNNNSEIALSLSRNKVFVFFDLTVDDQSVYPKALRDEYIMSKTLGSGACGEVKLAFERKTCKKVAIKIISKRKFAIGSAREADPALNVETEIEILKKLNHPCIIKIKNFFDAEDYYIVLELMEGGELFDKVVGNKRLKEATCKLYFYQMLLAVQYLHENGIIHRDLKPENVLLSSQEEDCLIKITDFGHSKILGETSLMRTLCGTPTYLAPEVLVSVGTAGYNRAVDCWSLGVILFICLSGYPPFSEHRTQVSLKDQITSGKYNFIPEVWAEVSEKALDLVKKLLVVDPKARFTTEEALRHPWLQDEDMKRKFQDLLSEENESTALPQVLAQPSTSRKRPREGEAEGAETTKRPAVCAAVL
UniProt P41240: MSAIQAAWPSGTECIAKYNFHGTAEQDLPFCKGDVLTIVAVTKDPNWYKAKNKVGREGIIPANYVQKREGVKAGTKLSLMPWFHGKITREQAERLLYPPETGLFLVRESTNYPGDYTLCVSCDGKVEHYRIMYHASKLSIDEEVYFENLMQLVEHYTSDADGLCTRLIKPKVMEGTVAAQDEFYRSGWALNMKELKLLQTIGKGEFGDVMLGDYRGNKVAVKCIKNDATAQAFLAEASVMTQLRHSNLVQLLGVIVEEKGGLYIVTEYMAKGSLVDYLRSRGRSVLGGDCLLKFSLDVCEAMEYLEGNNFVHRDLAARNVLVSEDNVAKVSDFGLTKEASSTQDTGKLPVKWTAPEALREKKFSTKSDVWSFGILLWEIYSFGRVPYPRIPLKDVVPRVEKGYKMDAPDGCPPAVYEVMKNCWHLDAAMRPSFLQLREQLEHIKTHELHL
UniProt P48729: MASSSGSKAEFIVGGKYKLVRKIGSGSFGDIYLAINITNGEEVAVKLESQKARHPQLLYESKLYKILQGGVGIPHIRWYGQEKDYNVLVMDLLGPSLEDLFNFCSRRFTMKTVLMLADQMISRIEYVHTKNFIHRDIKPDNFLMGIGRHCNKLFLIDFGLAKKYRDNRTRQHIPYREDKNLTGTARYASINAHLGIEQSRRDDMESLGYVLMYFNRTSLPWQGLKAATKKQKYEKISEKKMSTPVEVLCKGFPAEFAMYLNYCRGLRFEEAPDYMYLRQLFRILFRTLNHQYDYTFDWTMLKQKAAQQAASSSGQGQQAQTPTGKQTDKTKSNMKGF
UniProt P48730: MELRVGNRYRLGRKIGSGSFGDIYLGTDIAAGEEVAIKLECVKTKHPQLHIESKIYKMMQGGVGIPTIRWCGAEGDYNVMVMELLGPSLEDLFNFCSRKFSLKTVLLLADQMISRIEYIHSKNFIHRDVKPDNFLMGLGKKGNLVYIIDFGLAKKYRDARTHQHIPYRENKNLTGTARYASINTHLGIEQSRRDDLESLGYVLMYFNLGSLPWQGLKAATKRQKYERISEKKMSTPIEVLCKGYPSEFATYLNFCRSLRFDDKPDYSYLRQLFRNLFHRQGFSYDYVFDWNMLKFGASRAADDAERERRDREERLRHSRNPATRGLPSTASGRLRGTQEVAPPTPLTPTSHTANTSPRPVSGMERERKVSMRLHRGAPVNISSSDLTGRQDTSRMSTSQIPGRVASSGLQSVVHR
UniProt Q08345: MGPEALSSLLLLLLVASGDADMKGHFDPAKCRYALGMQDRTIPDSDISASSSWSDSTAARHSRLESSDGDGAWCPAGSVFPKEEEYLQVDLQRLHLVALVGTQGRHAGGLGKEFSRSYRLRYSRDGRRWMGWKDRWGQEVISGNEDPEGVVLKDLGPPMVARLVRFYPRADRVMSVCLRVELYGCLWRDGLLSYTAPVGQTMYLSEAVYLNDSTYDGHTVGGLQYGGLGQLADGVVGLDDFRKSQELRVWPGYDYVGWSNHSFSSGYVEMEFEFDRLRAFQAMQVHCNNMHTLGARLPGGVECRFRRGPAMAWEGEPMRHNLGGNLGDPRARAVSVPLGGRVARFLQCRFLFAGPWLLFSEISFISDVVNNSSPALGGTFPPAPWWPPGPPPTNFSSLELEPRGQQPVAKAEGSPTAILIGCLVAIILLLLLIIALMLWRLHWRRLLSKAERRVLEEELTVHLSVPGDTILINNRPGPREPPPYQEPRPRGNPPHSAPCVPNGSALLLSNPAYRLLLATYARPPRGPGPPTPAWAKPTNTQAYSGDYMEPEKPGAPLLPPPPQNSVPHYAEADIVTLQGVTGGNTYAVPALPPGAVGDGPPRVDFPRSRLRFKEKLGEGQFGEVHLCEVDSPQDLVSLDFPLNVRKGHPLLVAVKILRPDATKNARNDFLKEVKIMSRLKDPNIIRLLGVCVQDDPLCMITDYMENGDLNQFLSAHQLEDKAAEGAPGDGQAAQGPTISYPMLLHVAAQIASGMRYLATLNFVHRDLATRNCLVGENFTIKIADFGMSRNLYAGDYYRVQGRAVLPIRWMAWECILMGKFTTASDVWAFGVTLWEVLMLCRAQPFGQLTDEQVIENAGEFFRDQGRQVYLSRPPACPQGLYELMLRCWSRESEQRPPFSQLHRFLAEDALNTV
UniProt Q9Y463, whole entry, looked up: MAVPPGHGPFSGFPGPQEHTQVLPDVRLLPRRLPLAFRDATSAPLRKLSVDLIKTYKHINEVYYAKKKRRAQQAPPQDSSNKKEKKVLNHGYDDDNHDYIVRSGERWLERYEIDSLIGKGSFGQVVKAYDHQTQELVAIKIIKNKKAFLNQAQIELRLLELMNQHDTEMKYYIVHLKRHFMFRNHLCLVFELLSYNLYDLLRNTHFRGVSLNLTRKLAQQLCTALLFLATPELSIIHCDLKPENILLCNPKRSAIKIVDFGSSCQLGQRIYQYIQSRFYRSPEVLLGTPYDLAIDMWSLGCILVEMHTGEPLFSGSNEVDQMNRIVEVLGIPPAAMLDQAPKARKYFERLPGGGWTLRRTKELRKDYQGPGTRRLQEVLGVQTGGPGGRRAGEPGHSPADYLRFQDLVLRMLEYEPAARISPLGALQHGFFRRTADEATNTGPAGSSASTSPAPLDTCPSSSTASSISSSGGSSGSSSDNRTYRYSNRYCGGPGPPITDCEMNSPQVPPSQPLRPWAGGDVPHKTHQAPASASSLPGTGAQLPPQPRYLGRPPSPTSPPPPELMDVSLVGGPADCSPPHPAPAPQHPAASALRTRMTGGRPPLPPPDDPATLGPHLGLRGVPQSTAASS
UniProt Q92630: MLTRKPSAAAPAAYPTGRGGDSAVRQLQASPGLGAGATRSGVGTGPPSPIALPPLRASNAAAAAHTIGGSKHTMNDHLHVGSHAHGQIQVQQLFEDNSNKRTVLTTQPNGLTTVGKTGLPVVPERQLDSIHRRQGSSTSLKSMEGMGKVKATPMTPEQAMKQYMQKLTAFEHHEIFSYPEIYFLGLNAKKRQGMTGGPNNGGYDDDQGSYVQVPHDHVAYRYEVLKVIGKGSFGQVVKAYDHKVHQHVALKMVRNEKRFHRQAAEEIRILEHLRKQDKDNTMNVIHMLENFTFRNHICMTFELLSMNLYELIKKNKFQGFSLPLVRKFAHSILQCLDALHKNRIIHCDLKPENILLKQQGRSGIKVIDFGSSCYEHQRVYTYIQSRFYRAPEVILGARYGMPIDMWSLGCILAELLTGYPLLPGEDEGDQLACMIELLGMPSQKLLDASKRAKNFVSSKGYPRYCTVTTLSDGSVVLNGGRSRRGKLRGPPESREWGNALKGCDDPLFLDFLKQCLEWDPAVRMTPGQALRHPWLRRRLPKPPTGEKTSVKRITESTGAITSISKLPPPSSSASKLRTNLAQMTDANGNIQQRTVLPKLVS
UniProt P07333, whole entry: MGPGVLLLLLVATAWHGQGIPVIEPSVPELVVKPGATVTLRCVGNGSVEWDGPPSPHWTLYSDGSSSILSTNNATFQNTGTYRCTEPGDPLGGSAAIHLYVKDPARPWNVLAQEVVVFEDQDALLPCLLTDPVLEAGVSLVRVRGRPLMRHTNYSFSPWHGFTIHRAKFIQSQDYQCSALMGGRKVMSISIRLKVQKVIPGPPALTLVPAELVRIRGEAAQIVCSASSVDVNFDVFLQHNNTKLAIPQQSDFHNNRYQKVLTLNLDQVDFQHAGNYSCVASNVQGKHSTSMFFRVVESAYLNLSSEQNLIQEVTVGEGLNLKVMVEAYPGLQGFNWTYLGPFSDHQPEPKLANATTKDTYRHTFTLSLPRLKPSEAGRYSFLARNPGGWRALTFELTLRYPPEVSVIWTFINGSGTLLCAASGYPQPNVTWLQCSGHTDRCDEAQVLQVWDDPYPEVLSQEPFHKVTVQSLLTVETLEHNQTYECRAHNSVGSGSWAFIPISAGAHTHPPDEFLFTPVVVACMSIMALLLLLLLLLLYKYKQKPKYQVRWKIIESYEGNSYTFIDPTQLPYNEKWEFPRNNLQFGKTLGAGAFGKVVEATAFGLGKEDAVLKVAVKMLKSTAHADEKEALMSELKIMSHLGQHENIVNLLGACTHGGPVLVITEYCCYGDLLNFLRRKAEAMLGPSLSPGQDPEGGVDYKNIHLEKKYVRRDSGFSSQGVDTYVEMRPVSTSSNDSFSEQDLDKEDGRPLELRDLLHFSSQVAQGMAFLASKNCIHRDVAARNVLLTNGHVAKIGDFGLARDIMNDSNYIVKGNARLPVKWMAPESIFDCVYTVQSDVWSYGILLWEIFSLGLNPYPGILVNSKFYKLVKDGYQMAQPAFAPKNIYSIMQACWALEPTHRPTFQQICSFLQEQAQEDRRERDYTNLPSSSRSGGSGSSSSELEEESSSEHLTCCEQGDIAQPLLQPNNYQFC

Tests used:
Experiment in all cases: kinase-Nluc reporter destabilization hit call (1 = scored as downregulated) (binary); higher = compound decreases kinase abundance
Conditions in all cases: K562; 2-18 h
CDK7 = CDK7 (UniProt P50613)
CDK9 = CDK9 (UniProt P50750)
CHEK2 = CHEK2 (UniProt O96017)
CSK = CSK (UniProt P41240)
CSNK1A1 = CSNK1A1 (UniProt P48729)
CSNK1D = CSNK1D (UniProt P48730)
DDR1 = DDR1 (UniProt Q08345)
DYRK1B = DYRK1B (UniProt Q9Y463)
DYRK2 = DYRK2 (UniProt Q92630)
CSF1R = CSF1R (UniProt P07333)

| SMILES | kinase-Nluc reporter destabilization hit call (CDK7) | kinase-Nluc reporter destabilization hit call (CDK9) | kinase-Nluc reporter destabilization hit call (CHEK2) | kinase-Nluc reporter destabilization hit call (CSK) | kinase-Nluc reporter destabilization hit call (CSNK1A1) | kinase-Nluc reporter destabilization hit call (CSNK1D) | kinase-Nluc reporter destabilization hit call (DDR1) | kinase-Nluc reporter destabilization hit call (DYRK1B) | kinase-Nluc reporter destabilization hit call (DYRK2) | kinase-Nluc reporter destabilization hit call (CSF1R) |
| --- | --- | --- | --- | --- | --- | --- | --- | --- | --- | --- |
| Cc1nc(-c2cnc(NC(C)C)n(C)c2=O)ccc1Oc1ccnc(-c2cnn(C)c2)c1 (2.5 µM) | inactive: 0 | inactive: 0 | inactive: 0 | inactive: 0 | inactive: 0 | inactive: 0 | inactive: 0 | inactive: 0 | inactive: 0 | – |
| O=c1c(-c2ccc(O)cc2)coc2cc(O)cc(O)c12 [Genistein] (10 µM) | inactive: 0 | inactive: 0 | inactive: 0 | inactive: 0 | inactive: 0 | inactive: 0 | inactive: 0 | inactive: 0 | inactive: 0 | inactive: 0 |
| CC(C)(C)n1nc(Cc2cccc3ccccc23)c2c(N)ncnc21 (10 µM) | inactive: 0 | inactive: 0 | inactive: 0 | inactive: 0 | – | inactive: 0 | inactive: 0 | inactive: 0 | inactive: 0 | inactive: 0 |
| COc1ccc2c(C(=O)Nc3ccc(NC(=O)c4nn(C5CCN(C(=O)CC(C)(C)C#N)CC5)c5ccc(F)cc45)cc3Cl)cnn2c1 [Src Inhibitor 3] (2.5 µM) | inactive: 0 | inactive: 0 | inactive: 0 | – | inactive: 0 | inactive: 0 | inactive: 0 | inactive: 0 | inactive: 0 | inactive: 0 |
| Cc1ccc(S(=O)(=O)Nc2nc3ccccc3nc2Nc2ccc3nsnc3c2)cc1 [Pilaralisib analogue] (10 µM) | inactive: 0 | inactive: 0 | inactive: 0 | inactive: 0 | inactive: 0 | inactive: 0 | inactive: 0 | inactive: 0 | active: 1 | inactive: 0 |
| Cc1cccc(Cn2nc(C3CC3)c3c(NC(=O)c4cnc5cc(OCCN6CCN(C)CC6)ccn45)cccc32)n1 (10 µM) | inactive: 0 | inactive: 0 | inactive: 0 | inactive: 0 | inactive: 0 | inactive: 0 | inactive: 0 | inactive: 0 | inactive: 0 | – |
| Cc1ccc(F)c(NC(=O)Nc2ccc(-c3cccc4[nH]nc(N)c34)cc2)c1 [Linifanib] (2.5 µM) | inactive: 0 | inactive: 0 | inactive: 0 | inactive: 0 | inactive: 0 | inactive: 0 | active: 1 | inactive: 0 | inactive: 0 | – |
| COc1cc(Nc2ncc3c(n2)-c2ccc(Cl)cc2C(c2c(F)cccc2OC)=NC3)ccc1C(=O)O [Alisertib] (2.5 µM) | inactive: 0 | inactive: 0 | inactive: 0 | inactive: 0 | – | inactive: 0 | inactive: 0 | inactive: 0 | inactive: 0 | inactive: 0 |
| COc1cc2ncn(-c3cc(OCc4ccccc4C(F)(F)F)c(C(N)=O)s3)c2cc1OC (10 µM) | inactive: 0 | inactive: 0 | inactive: 0 | inactive: 0 | inactive: 0 | inactive: 0 | inactive: 0 | inactive: 0 | inactive: 0 | – |
| CN(c1ncccc1CNc1nc(Nc2ccc3c(c2)CC(=O)N3)ncc1C(F)(F)F)S(C)(=O)=O (2.5 µM) | inactive: 0 | inactive: 0 | inactive: 0 | inactive: 0 | – | inactive: 0 | inactive: 0 | inactive: 0 | inactive: 0 | inactive: 0 |
| CN(C)C(=O)/C(C#N)=C/c1ccc(-c2nc3cnc4[nH]ccc4c3n2C2CCCCC2)o1 (10 µM) | inactive: 0 | inactive: 0 | inactive: 0 | inactive: 0 | inactive: 0 | inactive: 0 | – | inactive: 0 | inactive: 0 | inactive: 0 |
| Cc1c(C(=O)N2CCOc3ccc(-c4ccc(N)nc4)cc3C2)ccc(S(C)(=O)=O)c1F (10 µM) | inactive: 0 | inactive: 0 | inactive: 0 | inactive: 0 | inactive: 0 | – | inactive: 0 | inactive: 0 | inactive: 0 | inactive: 0 |
| CNC(=O)c1ccccc1Nc1nc(Nc2ccc(N3CCOCC3)cc2OC)ncc1Cl (2.5 µM) | inactive: 0 | inactive: 0 | inactive: 0 | inactive: 0 | – | inactive: 0 | inactive: 0 | inactive: 0 | inactive: 0 | inactive: 0 |
| CCn1cc(-c2ccnc3[nH]c(-c4cccc(CN(C)C)c4)cc23)c(-c2ccc(NC(=O)N(C)C)cc2)n1 (2.5 µM) | inactive: 0 | inactive: 0 | inactive: 0 | inactive: 0 | inactive: 0 | – | inactive: 0 | inactive: 0 | inactive: 0 | inactive: 0 |
| O=S(=O)(NCCNC/C=C/c1ccc(Br)cc1)c1cccc2cnccc12 [H-89 (dihydrochloride)] (10 µM) | inactive: 0 | inactive: 0 | inactive: 0 | inactive: 0 | inactive: 0 | – | – | inactive: 0 | inactive: 0 | inactive: 0 |
| CC1(C)CC=C(c2nc(C3CC(C)(C)OC(C)(C)C3)ccc2NC(=O)c2nc(C#N)c[nH]2)CC1 [Edicotinib] (2.5 µM) | inactive: 0 | inactive: 0 | inactive: 0 | inactive: 0 | inactive: 0 | inactive: 0 | inactive: 0 | inactive: 0 | inactive: 0 | – |
| C[C@H](CN(C)C)Oc1nc(Nc2cc3cccc(Cl)c3cn2)cnc1C#N (10 µM) | inactive: 0 | inactive: 0 | – | inactive: 0 | inactive: 0 | inactive: 0 | inactive: 0 | inactive: 0 | inactive: 0 | inactive: 0 |
| C=CC(=O)N1CCC[C@@H](n2nc(-c3ccc(Oc4ccccc4)cc3)c(C(N)=O)c2N)C1 [Btk inhibitor 2] (10 µM) | inactive: 0 | inactive: 0 | inactive: 0 | inactive: 0 | inactive: 0 | inactive: 0 | inactive: 0 | inactive: 0 | inactive: 0 | inactive: 0 |
| Cc1nc(N)sc1-c1ccnc(Nc2ccc(N3CCOCC3)cc2)n1 (10 µM) | active: 1 | inactive: 0 | inactive: 0 | inactive: 0 | inactive: 0 | – | inactive: 0 | inactive: 0 | inactive: 0 | inactive: 0 |
| NC(=O)c1ccc2nc(-c3ccc(Oc4ccc(Cl)cc4)cc3)[nH]c2c1 (10 µM) | inactive: 0 | inactive: 0 | – | inactive: 0 | inactive: 0 | inactive: 0 | inactive: 0 | inactive: 0 | inactive: 0 | inactive: 0 |
| CC(C)(C)c1cc(NC(=O)Nc2ccc(-c3cn4c(n3)sc3cc(OCCN5CCOCC5)ccc34)cc2)no1 [Quizartinib] (10 µM) | inactive: 0 | inactive: 0 | inactive: 0 | inactive: 0 | inactive: 0 | inactive: 0 | inactive: 0 | inactive: 0 | inactive: 0 | – |
| COCCNCCc1cccc(Nc2ncc3c(n2)-c2ccccc2[C@H](c2ccccc2F)C3)c1 [Derazantinib] (2.5 µM) | inactive: 0 | inactive: 0 | inactive: 0 | inactive: 0 | inactive: 0 | inactive: 0 | inactive: 0 | inactive: 0 | inactive: 0 | – |
| O=c1oc2ccccc2c(O)c1Cc1c(O)c2ccccc2oc1=O [Dicoumarol] (10 µM) | inactive: 0 | inactive: 0 | inactive: 0 | inactive: 0 | inactive: 0 | inactive: 0 | inactive: 0 | inactive: 0 | inactive: 0 | – |
| COc1nccc(-c2c(-c3ccc(F)cc3)ncn2C2CCC(O)CC2)n1 (configuration not stated) (10 µM) | inactive: 0 | inactive: 0 | inactive: 0 | inactive: 0 | inactive: 0 | inactive: 0 | inactive: 0 | inactive: 0 | inactive: 0 | inactive: 0 |
| Cc1c(Cn2c(C)nc3c(C(=O)O)cc(N4CCOCC4)cc32)cccc1C(F)(F)F (10 µM) | inactive: 0 | inactive: 0 | inactive: 0 | inactive: 0 | inactive: 0 | inactive: 0 | inactive: 0 | inactive: 0 | inactive: 0 | inactive: 0 |
| CC(=O)N1CCN(c2ccc(OCC3COC(Cn4ccnc4)(c4ccc(Cl)cc4Cl)O3)cc2)CC1 (configuration not stated) [Ketoconazole] (2.5 µM) | inactive: 0 | inactive: 0 | inactive: 0 | inactive: 0 | inactive: 0 | inactive: 0 | inactive: 0 | inactive: 0 | inactive: 0 | – |
| CNC(=O)c1cccc(-c2ccc3c(N4CCOC[C@@H]4C)nc(N4CCOC[C@@H]4C)nc3n2)c1 [Vistusertib] (2.5 µM) | active: 1 | active: 1 | inactive: 0 | inactive: 0 | inactive: 0 | inactive: 0 | – | inactive: 0 | inactive: 0 | inactive: 0 |
| CC#CC(=O)N[C@H]1CCCN(c2c(F)cc(C(N)=O)c3[nH]c(C)c(C)c23)C1 [Branebrutinib] (10 µM) | inactive: 0 | inactive: 0 | inactive: 0 | inactive: 0 | inactive: 0 | inactive: 0 | inactive: 0 | inactive: 0 | inactive: 0 | inactive: 0 |

Part of the list above in a different format.
SMILES,kinase-Nluc reporter destabilization hit call (CDK7),kinase-Nluc reporter destabilization hit call (CDK9),kinase-Nluc reporter destabilization hit call (CHEK2),kinase-Nluc reporter destabilization hit call (CSK),kinase-Nluc reporter destabilization hit call (CSNK1A1),kinase-Nluc reporter destabilization hit call (CSNK1D),kinase-Nluc reporter destabilization hit call (DDR1),kinase-Nluc reporter destabilization hit call (DYRK1B),kinase-Nluc reporter destabilization hit call (DYRK2),kinase-Nluc reporter destabilization hit call (CSF1R)
Cc1c(Cn2c(C)nc3c(C(=O)O)cc(N4CCOCC4)cc32)cccc1C(F)(F)F (10 µM),inactive: 0,inactive: 0,inactive: 0,inactive: 0,inactive: 0,inactive: 0,inactive: 0,inactive: 0,inactive: 0,inactive: 0
CC(=O)N1CCN(c2ccc(OCC3COC(Cn4ccnc4)(c4ccc(Cl)cc4Cl)O3)cc2)CC1 (configuration not stated) [Ketoconazole] (2.5 µM),inactive: 0,inactive: 0,inactive: 0,inactive: 0,inactive: 0,inactive: 0,inactive: 0,inactive: 0,inactive: 0,–
